Among the data in PubChem BioAssay AID192 (DTP/NCI, 2004) are survivor count and T/C values, retold here.

The test concerns BDF1 mice, B16 melanoma ip, median survival T/C. Kind of test: NCI In Vivo Anticancer Drug Screen. Data for tumor model B16 Melanoma (intraperitoneal) in B6D2F1 (BDF1) mice. Particulars: T/C endpoint: median survival time, higher T/C = longer survival. In short, it runs like this:
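In this screen, activity was judged from survival or tumor size in treated versus vehicle-treated tumor-bearing mice, reported as T/C.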

Setting [1] is: dose: 100.0 mg/kg/injection, schedule: Q01DX009 (ip), vehicle: Klucel (hydroxypropylcellulose) (HPC).
The mark [2] stands for this setting: dose: 200.0 mg/kg/injection, schedule: Q01DX009 (ip), vehicle: Klucel (hydroxypropylcellulose) (HPC).
Where [3] appears, read: dose: 400.0 mg/kg/injection, schedule: Q01DX009 (ip), vehicle: Klucel (hydroxypropylcellulose) (HPC).
The mark [4] stands for this setting: dose: 0.25 mg/kg/injection, schedule: Q01DX009 (ip), vehicle: saline.
The mark [5] stands for this setting: dose: 0.5 mg/kg/injection, schedule: Q01DX009 (ip), vehicle: saline.
[6] abbreviates: dose: 12.5 mg/kg/injection, schedule: Q01DX009 (ip), vehicle: Klucel (hydroxypropylcellulose) (HPC).
Setting [7] is: dose: 25.0 mg/kg/injection, schedule: Q01DX009 (ip), vehicle: Klucel (hydroxypropylcellulose) (HPC).
Setting [8] is: dose: 200.0 mg/kg/injection, schedule: Q01DX009 (ip), vehicle: saline with Tween-80.
Setting [9] is: dose: 100.0 mg/kg/injection, schedule: Q01DX009 (ip), vehicle: saline.
Where [10] appears, read: dose: 200.0 mg/kg/injection, schedule: Q01DX009 (ip), vehicle: saline.
Setting [11] is: dose: 25.0 mg/kg/injection, schedule: Q01DX009 (ip), vehicle: saline with Tween-80.
The mark [12] stands for this setting: dose: 12.5 mg/kg/injection, schedule: Q01DX009 (ip), vehicle: saline with Tween-80.
Where [13] appears, read: dose: 50.0 mg/kg/injection, schedule: Q01DX009 (ip), vehicle: saline with Tween-80.
Where [14] appears, read: dose: 100.0 mg/kg/injection, schedule: Q01DX009 (ip), vehicle: saline with Tween-80.
[15] abbreviates: dose: 6.25 mg/kg/injection, schedule: Q01DX009 (ip), vehicle: saline with Tween-80.

The list does not hold the whole screen: it gathers tests that were run many times, whatever their T/C, doses with no T/C, and many T/C values between a quarter and a half above the control. Other doses and runs of a compound stand elsewhere. T/C is the treated group as % of the vehicle group. Some doses have a count of surviving animals in place of a T/C: the source holds a T/C of zero for them, seemingly a mark for toxic or unscored doses. Some survivor counts are full or nearly so, which does not show that the dose was tolerated: survival well below the control is almost never listed, so the zero probably covers shortened survival too. Survivors were counted at the toxicity check, usually on the fifth day, unless a day is given; later deaths do not show. Schedules are NCI's codes, read here as Q, the interval in days (D) or hours (H), X, the number of doses. Some doses were run more than once; their values stand side by side, smallest first. For survival time, this PubChem deposit counts one and a half times the control or more as active, and values a quarter to a half above the control carry no call in these data; other NCI protocols may use other cut-offs. Marks such as (2×) count equal records among those shown. Peptide text beside a SMILES is read from it. * marks the point of attachment. Trt = c1ccc(C(c2ccccc2)(c2ccccc2)*)cc1; Cbz = O=C(OCc1ccccc1)*

Regarding `CC(=O)Nc1nc(=O)n(CC(=O)c2cccs2)cc1F`, the survivor count under setting [1] is on record as 10 of 10, the survivor count under setting [2] is reported as 10 of 10 and the survivor count under setting [3] was 0 of 10.
In the case of `COc1ccc(C2=CC(=O)N(C(C)C)C2=O)cc1`, under “dose: 160.0 mg/kg/injection, schedule: Q04DX003 (ip), vehicle: saline with Tween-80”, the T/C was 139 % of control.
As for `CCOC(=O)N(NC(=O)c1ccccc1)C(C)=O`, where the note is “dose: 100.0 mg/kg/injection, schedule: Q01DX009 (ip), vehicle: other”, the survivor count was 4 of 10.
For the molecule `CCC(=O)OCC(=O)[C@]1(O)Cc2c(O)c3c(c(O)c2[C@@H](OC2CC(N)C(O)C(C)O2)C1)C(=O)c1c(OC)cccc1C3=O` (some centres undefined), the T/C is, setting by setting: under setting [4], 128 % of control; under setting [5], 146 % of control. The survivor count is on record as 10 of 10 (dose: 4.0 mg/kg/injection, schedule: Q01DX009 (ip), vehicle: saline) and 10 of 10 (dose: 8.0 mg/kg/injection, schedule: Q01DX009 (ip), vehicle: saline).
Take `CS(=O)(=O)ON1C(=O)c2ccccc2C1=O`: the survivor count reads like this: under setting [6], 10 of 10; under setting [7], 10 of 10.
As for `COC(=O)C1(C(=O)OC)C=CCCC1=O`, the survivor count under setting [3] was 9 of 10.
Regarding `CCOC(=O)C(CC)c1ccccc1` (centres undefined), the survivor count under setting [8] was 8 of 10.
Consider `CNCCCN1c2ccccc2CCc2ccccc21`, for which the survivor count was 1 of 10 under setting [9]; 0 of 10 under setting [10]; 0 of 10 (dose: 400.0 mg/kg/injection, schedule: Q01DX009 (ip), vehicle: saline).
Take `O=C(CCBr)N1CCN(C(=O)CCBr)CC1`: the T/C reads like this: (dose: 40.0 mg/kg/injection, schedule: Q01DX009 (ip), vehicle: saline) 126 % of control (2×); (dose: 80.0 mg/kg/injection, schedule: Q01DX009 (ip), vehicle: saline with Tween-80) 136 % of control. In addition, the survivor count (dose: 80.0 mg/kg/injection, schedule: Q01DX009 (ip), vehicle: saline) is 10 of 10.
As for `CCCC1(CCC)c2ccccc2C(CCl)(OCC)c2ccccc21`, the survivor count (dose: 150.0 mg/kg/injection, schedule: Q01DX009 (ip), vehicle: other) was 8 of 10.
For the molecule `O=C(C[n+]1ccc2ccccc2c1)c1ccccc1`, the survivor count under setting [9] is recorded as 0 of 6.
In the case of `COc1cc([C@@H]2c3cc4c(cc3[C@H](O)[C@H]3COC(=O)[C@H]23)OCO4)cc(OC)c1OC`, the survivor count (dose: 16.0 mg/kg/injection, schedule: Q01DX009 (ip), vehicle: saline) is reported as 10 of 10.
On to `COc1ccc(N=O)c(O)c1`, for which the survivor count under setting [10] is on record as 5 of 6.
In the case of `COC(=O)CNC(=O)C(NC(=O)C1CCCN1C(=O)OCc1ccccc1)C(C)C` (stereo not drawn) (Cbz-Pro-Val-Gly-OMe; configuration not given here), the survivor count reads like this: under setting [8], 10 of 10; (dose: 400.0 mg/kg/injection, schedule: Q01DX009 (ip), vehicle: saline with Tween-80) 3 of 10.
As to `O=C(CBr)c1ccc(F)cc1`, the survivor count under setting [7] is recorded as 4 of 10.
In the case of `O=c1cc(-c2ccccc2)nc(Nc2nc3ccc([N+](=O)[O-])cc3[nH]2)[nH]1`, the survivor count by setting is: under setting [2], 10 of 10; under setting [3], 10 of 10.
Turning to `Nc1nc(=S)c2[nH]c(N=Nc3ccc(S(=O)(=O)Nc4ccccn4)cc3)nc2[nH]1`, the survivor count is reported as 10 of 10 (dose: 6.25 mg/kg/injection, schedule: Q01DX009 (ip), vehicle: Klucel (hydroxypropylcellulose) (HPC)); 10 of 10 under setting [6]; 10 of 10 under setting [7]; 10 of 10 (dose: 50.0 mg/kg/injection, schedule: Q01DX009 (ip), vehicle: Klucel (hydroxypropylcellulose) (HPC)); 10 of 10 under setting [1].
On to `CCCCCCCCCCCCCCCCCCNC(=O)N(CC)c1ccccc1`, for which the survivor count under setting [1] is reported as 10 of 10, the survivor count under setting [2] is reported as 10 of 10 and the survivor count under setting [3] is on record as 10 of 10.
`O=C1c2ccccc2C(=O)c2c(NCCCCCO)ccc(NCCCCCO)c21`: the survivor count reads like this: (dose: 64.0 mg/kg/injection, schedule: Q01DX009 (ip), vehicle: Klucel (hydroxypropylcellulose) (HPC)) 10 of 10; (dose: 128.0 mg/kg/injection, schedule: Q01DX009 (ip), vehicle: Klucel (hydroxypropylcellulose) (HPC)) 10 of 10.
As to `S=C=NCCCCCCCCCCCCN=C=S`, the survivor count under setting [11] is recorded as 0 of 10.
As to `N#CC(Nc1ccccc1)c1ccccc1` (centres undefined), the survivor count under setting [2] is on record as 4 of 10.
As to `CN(C)CCCc1c2ccccc2nc2ccc(Cl)cc12`, the survivor count (dose: 100.0 mg/kg/injection, schedule: Q04DX003 (ip), vehicle: saline) was 0 of 10; the survivor count (dose: 200.0 mg/kg/injection, schedule: Q04DX003 (ip), vehicle: saline) is listed as 0 of 10; the survivor count (dose: 400.0 mg/kg/injection, schedule: Q04DX003 (ip), vehicle: saline) was 0 of 10.
Take `CC(=O)Nc1cc(N(CCOS(C)(=O)=O)CCOS(C)(=O)=O)ccc1N=O`: the survivor count runs as follows: (dose: 0.12 mg/kg/injection, schedule: Q01DX009 (ip), vehicle: saline) 10 of 10; under setting [4], 10 of 10; under setting [5], 10 of 10; (dose: 0.62 mg/kg/injection, schedule: Q04DX003 (ip), vehicle: saline with Tween-80) 10 of 10; (dose: 1.0 mg/kg/injection, schedule: Q01DX009 (ip), vehicle: saline) 3 of 10; (dose: 1.25 mg/kg/injection, schedule: Q04DX003 (ip), vehicle: saline with Tween-80) 10 of 10. Moreover, the survivor count reads like this: (dose: 2.5 mg/kg/injection, schedule: Q04DX003 (ip), vehicle: saline with Tween-80) 8 of 10; (dose: 5.0 mg/kg/injection, schedule: Q04DX003 (ip), vehicle: saline with Tween-80) 4 of 10. For the same molecule, the T/C (dose: 25.0 micrograms/kg/injection, schedule: Q01DX009 (ip), vehicle: saline) was 126 % of control and the T/C (dose: 50.0 micrograms/kg/injection, schedule: Q01DX009 (ip), vehicle: saline) was 128 % of control.
Regarding `Cc1c2cccc(Sc3ccccc3)c2c2c3c(cccc13)[S+](c1ccccc1)C2` (centres undefined), the survivor count is, setting by setting: under setting [12], 9 of 10; under setting [11], 1 of 10; under setting [13], 2 of 10; under setting [14], 0 of 10.
Take `COC(=O)C(CSC(c1ccccc1)(c1ccccc1)c1ccccc1)NC(=O)C(CC(N)=O)NC(=O)OCc1ccccc1` (stereo not drawn) (Cbz-Asn-Cys(Trt)-OMe; configuration not given here): the T/C is 128 % of control (dose: 50.0 mg/kg/injection, schedule: Q01DX009 (ip), vehicle: distilled water + Tween-80); 148 % of control (dose: 100.0 mg/kg/injection, schedule: Q01DX009 (ip), vehicle: distilled water + Tween-80); 145 % of control (dose: 200.0 mg/kg/injection, schedule: Q01DX009 (ip), vehicle: distilled water + Tween-80). Also, the survivor count (dose: 400.0 mg/kg/injection, schedule: Q01DX009 (ip), vehicle: distilled water + Tween-80) is 9 of 10 and 10 of 10.
Take `O=C1C(=O)C(Cl)=C(Cl)C(Cl)=C1Cl`: the survivor count is 6 of 6 under setting [15], 6 of 6 under setting [12] and 6 of 6 under setting [11].
With `CC(=O)O[C@@H]1[C@@H](O)C2=C3[C@]4(C)[C@@H]1C(C)(C)C(=O)C[C@@H]4[C@]3(O)[C@H](OC(C)=O)[C@@]1(C[C@@H]1C)C2=O`, the survivor count by setting is: under setting [15], 6 of 10; under setting [12], 8 of 10; under setting [11], 6 of 10; under setting [13], 3 of 10; under setting [14], 4 of 10 and 8 of 10.
